# From the supplement of paper PMC10849652
# The chains behind the UniProt entries cited, without tags or fusion partners. Where a name states a change or a piece, a line headed by the entry shows the natural chain unless it says otherwise.
# UniProt Q86XR7, whole entry, looked up: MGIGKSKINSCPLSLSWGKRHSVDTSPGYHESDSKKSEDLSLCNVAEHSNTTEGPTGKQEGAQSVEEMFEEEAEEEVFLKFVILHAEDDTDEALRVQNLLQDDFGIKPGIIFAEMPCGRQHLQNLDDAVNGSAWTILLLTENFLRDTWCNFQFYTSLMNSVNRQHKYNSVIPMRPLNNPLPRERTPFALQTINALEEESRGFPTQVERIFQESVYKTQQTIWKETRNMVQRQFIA
# UniProt O60830: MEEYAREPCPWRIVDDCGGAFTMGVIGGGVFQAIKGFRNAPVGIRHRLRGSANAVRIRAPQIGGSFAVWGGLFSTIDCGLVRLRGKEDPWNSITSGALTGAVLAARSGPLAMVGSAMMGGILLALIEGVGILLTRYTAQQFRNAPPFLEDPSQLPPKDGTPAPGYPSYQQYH
# UniProt Q9UHD2: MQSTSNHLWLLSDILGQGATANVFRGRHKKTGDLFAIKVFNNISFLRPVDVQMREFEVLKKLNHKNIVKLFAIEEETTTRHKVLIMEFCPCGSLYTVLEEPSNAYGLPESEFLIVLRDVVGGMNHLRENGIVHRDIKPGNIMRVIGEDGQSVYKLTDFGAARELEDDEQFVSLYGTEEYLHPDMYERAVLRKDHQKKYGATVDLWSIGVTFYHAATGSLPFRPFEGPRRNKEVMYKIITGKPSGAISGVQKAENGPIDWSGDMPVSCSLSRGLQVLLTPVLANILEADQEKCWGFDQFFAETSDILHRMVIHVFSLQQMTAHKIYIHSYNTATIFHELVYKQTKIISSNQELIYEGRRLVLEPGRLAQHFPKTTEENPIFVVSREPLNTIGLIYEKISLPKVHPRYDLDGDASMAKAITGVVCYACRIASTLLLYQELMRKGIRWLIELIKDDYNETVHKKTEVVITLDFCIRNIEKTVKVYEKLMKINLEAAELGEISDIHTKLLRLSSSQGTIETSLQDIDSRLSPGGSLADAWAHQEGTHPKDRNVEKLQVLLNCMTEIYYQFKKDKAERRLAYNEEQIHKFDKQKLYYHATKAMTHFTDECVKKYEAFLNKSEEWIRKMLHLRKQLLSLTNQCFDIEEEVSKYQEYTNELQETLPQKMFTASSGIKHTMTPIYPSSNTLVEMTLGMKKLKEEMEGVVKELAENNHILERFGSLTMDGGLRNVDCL
# UniProt O60907: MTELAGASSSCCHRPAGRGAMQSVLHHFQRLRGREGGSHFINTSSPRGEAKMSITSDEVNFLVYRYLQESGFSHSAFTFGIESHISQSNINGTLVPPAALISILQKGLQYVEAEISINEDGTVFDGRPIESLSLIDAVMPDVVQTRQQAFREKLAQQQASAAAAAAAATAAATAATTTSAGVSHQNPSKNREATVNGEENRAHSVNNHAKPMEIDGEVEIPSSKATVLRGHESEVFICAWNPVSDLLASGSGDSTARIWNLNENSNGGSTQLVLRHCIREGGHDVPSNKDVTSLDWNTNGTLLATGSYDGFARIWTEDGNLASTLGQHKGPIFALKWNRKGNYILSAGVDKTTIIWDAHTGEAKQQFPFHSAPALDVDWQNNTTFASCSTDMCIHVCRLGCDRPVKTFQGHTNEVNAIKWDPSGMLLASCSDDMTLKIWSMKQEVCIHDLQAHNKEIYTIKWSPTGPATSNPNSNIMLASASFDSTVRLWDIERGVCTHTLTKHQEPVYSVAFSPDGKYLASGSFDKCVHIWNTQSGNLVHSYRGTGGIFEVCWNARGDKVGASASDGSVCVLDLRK
# UniProt Q9Y4R8, whole entry, looked up: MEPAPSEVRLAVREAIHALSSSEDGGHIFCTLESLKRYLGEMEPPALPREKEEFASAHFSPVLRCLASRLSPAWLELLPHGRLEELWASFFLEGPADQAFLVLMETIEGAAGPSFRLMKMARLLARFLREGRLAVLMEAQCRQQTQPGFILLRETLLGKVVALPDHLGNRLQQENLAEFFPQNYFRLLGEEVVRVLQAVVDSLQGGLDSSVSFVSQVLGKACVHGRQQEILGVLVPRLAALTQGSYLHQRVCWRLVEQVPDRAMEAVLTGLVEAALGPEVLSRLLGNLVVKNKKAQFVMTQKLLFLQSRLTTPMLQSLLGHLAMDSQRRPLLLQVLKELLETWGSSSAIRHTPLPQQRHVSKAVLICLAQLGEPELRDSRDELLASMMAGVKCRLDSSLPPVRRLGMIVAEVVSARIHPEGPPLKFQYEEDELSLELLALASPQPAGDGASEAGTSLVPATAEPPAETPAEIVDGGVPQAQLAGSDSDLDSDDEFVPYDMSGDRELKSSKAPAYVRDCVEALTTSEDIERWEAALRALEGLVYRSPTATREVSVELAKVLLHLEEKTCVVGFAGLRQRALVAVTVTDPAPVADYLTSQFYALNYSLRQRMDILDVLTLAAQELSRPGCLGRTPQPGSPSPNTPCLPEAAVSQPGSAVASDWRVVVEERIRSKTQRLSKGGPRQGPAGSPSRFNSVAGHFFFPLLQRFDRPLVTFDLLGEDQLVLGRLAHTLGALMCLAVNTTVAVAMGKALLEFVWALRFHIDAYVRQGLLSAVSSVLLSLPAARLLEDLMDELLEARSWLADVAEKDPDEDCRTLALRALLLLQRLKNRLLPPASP
# UniProt Q86W42: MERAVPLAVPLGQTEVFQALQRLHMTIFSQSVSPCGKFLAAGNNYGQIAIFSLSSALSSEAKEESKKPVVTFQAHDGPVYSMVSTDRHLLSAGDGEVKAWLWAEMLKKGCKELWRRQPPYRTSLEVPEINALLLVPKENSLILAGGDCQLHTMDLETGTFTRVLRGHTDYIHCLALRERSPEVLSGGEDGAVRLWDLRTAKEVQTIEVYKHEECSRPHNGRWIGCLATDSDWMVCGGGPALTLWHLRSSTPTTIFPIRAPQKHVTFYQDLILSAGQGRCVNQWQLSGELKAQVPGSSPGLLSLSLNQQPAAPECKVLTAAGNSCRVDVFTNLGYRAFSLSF
# UniProt Q99081: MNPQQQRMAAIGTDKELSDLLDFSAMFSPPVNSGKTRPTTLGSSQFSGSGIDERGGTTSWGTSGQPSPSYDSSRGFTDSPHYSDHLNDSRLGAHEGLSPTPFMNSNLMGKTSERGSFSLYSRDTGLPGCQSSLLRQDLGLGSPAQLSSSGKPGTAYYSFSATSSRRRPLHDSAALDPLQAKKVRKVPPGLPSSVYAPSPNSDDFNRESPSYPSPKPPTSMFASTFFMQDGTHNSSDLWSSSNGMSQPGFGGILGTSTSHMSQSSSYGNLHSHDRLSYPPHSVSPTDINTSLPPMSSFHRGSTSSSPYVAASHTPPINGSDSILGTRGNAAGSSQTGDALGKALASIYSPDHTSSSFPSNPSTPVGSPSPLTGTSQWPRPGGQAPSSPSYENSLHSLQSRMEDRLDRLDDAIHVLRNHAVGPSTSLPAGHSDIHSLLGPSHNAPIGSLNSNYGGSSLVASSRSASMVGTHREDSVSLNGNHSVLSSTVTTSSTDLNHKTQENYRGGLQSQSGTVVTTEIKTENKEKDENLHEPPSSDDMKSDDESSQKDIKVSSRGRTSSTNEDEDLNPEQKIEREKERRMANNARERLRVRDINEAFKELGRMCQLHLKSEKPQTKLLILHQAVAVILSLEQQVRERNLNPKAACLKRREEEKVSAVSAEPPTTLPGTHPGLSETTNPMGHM
# UniProt Q9BTW9: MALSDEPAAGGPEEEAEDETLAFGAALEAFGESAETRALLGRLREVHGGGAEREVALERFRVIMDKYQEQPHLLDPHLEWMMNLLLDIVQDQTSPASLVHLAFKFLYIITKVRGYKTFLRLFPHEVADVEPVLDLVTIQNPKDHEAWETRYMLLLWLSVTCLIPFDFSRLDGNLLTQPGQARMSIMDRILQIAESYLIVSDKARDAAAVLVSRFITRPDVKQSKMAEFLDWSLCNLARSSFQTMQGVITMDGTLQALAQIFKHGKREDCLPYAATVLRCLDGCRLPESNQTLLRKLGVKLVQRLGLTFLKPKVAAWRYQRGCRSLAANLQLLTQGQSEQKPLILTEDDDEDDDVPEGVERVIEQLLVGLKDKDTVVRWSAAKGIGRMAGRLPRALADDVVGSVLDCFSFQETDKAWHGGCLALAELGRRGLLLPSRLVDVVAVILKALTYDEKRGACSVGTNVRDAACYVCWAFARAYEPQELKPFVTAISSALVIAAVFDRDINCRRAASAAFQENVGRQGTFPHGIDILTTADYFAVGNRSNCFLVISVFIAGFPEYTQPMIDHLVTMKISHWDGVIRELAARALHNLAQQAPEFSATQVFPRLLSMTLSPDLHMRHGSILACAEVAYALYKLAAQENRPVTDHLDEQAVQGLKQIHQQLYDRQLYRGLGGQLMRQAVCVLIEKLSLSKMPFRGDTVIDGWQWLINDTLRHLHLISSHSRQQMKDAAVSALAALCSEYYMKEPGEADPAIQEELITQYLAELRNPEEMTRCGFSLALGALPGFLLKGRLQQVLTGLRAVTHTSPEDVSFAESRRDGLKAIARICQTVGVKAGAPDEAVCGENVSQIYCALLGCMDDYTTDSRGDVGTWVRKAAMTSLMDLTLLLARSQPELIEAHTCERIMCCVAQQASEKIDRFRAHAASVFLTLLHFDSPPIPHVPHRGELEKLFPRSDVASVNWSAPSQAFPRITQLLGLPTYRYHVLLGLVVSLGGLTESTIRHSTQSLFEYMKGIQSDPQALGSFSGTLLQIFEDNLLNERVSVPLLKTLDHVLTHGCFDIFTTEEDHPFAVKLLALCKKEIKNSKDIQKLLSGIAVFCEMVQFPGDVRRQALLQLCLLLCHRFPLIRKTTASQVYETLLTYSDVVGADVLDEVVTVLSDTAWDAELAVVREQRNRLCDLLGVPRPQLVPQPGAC
# UniProt Q9Y5L4: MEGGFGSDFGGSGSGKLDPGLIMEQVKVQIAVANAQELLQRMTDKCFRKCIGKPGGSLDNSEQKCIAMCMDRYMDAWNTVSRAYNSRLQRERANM
# UniProt O75347: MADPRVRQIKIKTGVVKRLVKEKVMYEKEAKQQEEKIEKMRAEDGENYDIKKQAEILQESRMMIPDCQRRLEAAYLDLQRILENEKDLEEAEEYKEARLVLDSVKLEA
# UniProt Q13428: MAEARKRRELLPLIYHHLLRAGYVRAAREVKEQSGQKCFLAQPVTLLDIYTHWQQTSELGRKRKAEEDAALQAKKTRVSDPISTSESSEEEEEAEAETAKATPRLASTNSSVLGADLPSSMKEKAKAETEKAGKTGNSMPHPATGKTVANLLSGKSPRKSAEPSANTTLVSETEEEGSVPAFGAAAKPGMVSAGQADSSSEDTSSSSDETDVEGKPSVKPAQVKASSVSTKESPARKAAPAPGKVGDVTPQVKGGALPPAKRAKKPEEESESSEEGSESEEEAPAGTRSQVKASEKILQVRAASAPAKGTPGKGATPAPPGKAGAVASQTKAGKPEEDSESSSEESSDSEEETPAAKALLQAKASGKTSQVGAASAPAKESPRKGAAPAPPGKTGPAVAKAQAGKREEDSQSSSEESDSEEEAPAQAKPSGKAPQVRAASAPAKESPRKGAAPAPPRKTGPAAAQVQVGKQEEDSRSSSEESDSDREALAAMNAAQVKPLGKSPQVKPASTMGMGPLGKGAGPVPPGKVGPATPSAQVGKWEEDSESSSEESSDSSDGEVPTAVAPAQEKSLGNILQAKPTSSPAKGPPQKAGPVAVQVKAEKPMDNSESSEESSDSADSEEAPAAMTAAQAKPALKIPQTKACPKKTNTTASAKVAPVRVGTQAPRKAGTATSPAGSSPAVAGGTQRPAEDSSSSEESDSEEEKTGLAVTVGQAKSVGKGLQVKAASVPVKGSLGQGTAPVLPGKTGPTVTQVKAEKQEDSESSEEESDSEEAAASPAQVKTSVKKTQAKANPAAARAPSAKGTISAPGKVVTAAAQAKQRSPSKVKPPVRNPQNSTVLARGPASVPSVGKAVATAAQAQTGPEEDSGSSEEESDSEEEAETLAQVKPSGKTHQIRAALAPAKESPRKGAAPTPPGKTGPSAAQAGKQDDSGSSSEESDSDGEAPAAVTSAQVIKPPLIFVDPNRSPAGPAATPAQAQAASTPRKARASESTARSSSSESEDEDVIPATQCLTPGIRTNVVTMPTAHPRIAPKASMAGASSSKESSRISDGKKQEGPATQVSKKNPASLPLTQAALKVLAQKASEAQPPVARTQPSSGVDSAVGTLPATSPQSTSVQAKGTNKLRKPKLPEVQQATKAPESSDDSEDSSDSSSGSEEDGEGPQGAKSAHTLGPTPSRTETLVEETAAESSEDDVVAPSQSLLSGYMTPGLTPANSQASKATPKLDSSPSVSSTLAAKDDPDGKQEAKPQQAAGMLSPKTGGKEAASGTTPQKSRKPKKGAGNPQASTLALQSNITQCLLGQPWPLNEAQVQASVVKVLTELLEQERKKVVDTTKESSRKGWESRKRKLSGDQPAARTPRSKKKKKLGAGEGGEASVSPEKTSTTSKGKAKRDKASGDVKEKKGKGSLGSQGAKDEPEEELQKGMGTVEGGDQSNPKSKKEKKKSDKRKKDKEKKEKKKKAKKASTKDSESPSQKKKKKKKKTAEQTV
# UniProt O60220: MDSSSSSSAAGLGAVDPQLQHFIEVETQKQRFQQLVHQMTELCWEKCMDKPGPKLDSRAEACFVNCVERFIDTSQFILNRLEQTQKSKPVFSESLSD
# The list shows a part of the results.
# What was measured:
# Experiment in all cases: log2 fold change, soluble protein after heating vs DMSO (PISA); higher = thermal stabilisation; K562 cells, 10 uM, 30 min; active = over 0.2 and 3.5 SD of the protein, either way, in both replicates (recomputed)
# [1] = compound: CC[C@@H]1C(=O)N(C)c2cnc(Nc3ccc(C(=O)NC4CCN(C)CC4)cc3OC)nc2N1C1CCCC1
# In short: (§1)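 K562 cells at 2×10^6 cells/mL were treated for 30 min with 10 μM compound, and aliquots were heated for 3 min over 48°C-58°C before pooling. Extraction used PBS with 0.5% NP-40 at 4°C, and soluble protein was the supernatant after 21,000xg for 90 min, measured by TMTpro 16plex LC-MS/MS with channel sums equalised. Thermal stability values, relative to control samples and from duplicates, are log2 fold changes.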
# [2] = compound: CC[C@@H]1C(=O)N(C)c2cnc(Nc3ccc(C(=O)N[C@H]4CC[C@H](N5CCN(CC6CC6)CC5)CC4)cc3OC)nc2N1C(C)C [volasertib]
# In short: as §1
# [3] = compound: CC[C@H](C)N1C=C(C2=C(C=C(C=C21)C3=CN=C(C=C3)N4CCNCC4)C(=O)NCC5=C(C=C(NC5=O)C)C)C
# In short: as §1
# [4] = compound: CC[C@H](C)[C@@H](C(=O)N[C@@H]([C@@H](C)O)C(=O)N[C@@H](CC(C)C)C(=O)[C@]1(CO1)C)NC(=O)[C@H]([C@@H](C)CC)N(C)C(=O)C [epoxomicin]
# In short: as §1
# [5] = compound: CCn1c(C(=O)N(C2CC2)C2CC2)cc2c3c(ncn3C)c(Nc3cc(C)n(C)n3)nc21
# In short: as §1
# [6] = compound: CCn1cc(-c2ccnc3[nH]c(-c4cccc(CN(C)C)c4)cc23)c(-c2ccc(NC(=O)N(C)C)cc2)n1
# In short: as §1
# [7] = compound: CN(C)CC(=O)Nc1ccc2[nH]c(=O)c3ccccc3c2c1
# In short: as §1
# [8] = compound: CN(CCOC1=CC=C(C=C1)C[C@H]2C(=O)NC(=O)S2)C3=CC=CC=N3 (racemic) [rosiglitazone]
# In short: as §1
# [9] = compound: CN1C2=C(C3=C1C(=O)N(N=C3)CC4=CC(=CC=C4)N)SC(=C2)S(=O)C
# In short: as §1
# [10] = compound: CN1CCC(CNc2ccc3ncc(-c4cccc(OC(F)(F)F)c4)n3n2)CC1
# In short: as §1
Target,log2 fold change [1],log2 fold change [2],log2 fold change [3],log2 fold change [4],log2 fold change [5],log2 fold change [6],log2 fold change [7],log2 fold change [8],log2 fold change [9],log2 fold change [10]
TICAM2 isoform 2 (UniProt Q86XR7),inactive: 0.008,inactive: 0.029,inactive: -0.011,inactive: 0.152,inactive: 0.059,inactive: -0.051,inactive: 0.031,inactive: 0.004,inactive: -0.041,inactive: -0.031
THUMPD2 (UniProt Q9BTF0),inactive: 0.094,inactive: 0.006,inactive: 0.049,inactive: -0.032,inactive: -0.012,inactive: 0.145,inactive: -0.029,inactive: -0.043,inactive: 0.029,inactive: 0.039
TKT isoform 2 (UniProt P29401),inactive: -0.049,inactive: 0.049,inactive: -0.037,inactive: 0,inactive: 0.021,inactive: 0.073,inactive: -0.001,inactive: 0,inactive: -0.049,inactive: 0.017
THEM4 (UniProt Q5T1C6),inactive: 0.067,inactive: 0.163,inactive: 0.002,inactive: -0.019,inactive: 0.008,inactive: -0.029,inactive: -0.005,inactive: 0.007,inactive: -0.059,inactive: 0.026
THUMPD3 (UniProt Q9BV44),inactive: -0.035,inactive: -0.062,inactive: 0.03,inactive: 0.038,inactive: 0,inactive: -0.049,inactive: 0.026,inactive: -0.003,inactive: -0.049,inactive: -0.094
THOC2 (UniProt Q8NI27),inactive: 0.021,inactive: 0.015,inactive: 0.025,inactive: -0.033,inactive: -0.039,inactive: 0.06,inactive: 0.009,inactive: 0.005,inactive: 0.089,inactive: -0.012
TFIP11 (UniProt Q9UBB9),inactive: 0.029,–,–,–,–,–,–,–,–,–
TLE3 isoform 4 (UniProt Q04726),inactive: 0.031,inactive: -0.01,inactive: -0.023,inactive: 0.101,inactive: -0.035,inactive: -0.043,inactive: -0.04,inactive: -0.01,inactive: 0.028,inactive: 0.032
TIMM17B (UniProt O60830),inactive: 0.01,inactive: 0.046,inactive: -0.029,inactive: -0.029,inactive: 0.042,inactive: -0.02,inactive: -0.129,inactive: -0.045,inactive: -0.064,inactive: 0.009
TFB1M (UniProt Q8WVM0),inactive: 0.15,inactive: 0.144,inactive: 0.032,inactive: -0.139,inactive: 0.02,inactive: 0.07,inactive: -0.033,inactive: 0.049,inactive: 0.096,inactive: 0.277
TBK1 (UniProt Q9UHD2),inactive: -0.093,inactive: -0.232,inactive: 0.055,inactive: 0.019,–,inactive: 0.023,inactive: -0.033,–,inactive: 0.172,inactive: -0.152
TIMM22 (UniProt Q9Y584),inactive: -0.024,inactive: 0.079,inactive: -0.04,inactive: 0.12,inactive: 0.033,inactive: -0.056,inactive: 0.19,inactive: 0.046,inactive: -0.101,inactive: 0.2
TBL1X (UniProt O60907),inactive: 0.041,inactive: -0.023,inactive: -0.029,inactive: 0.038,inactive: 0.004,inactive: -0.122,inactive: 0,inactive: 0.021,inactive: -0.054,inactive: -0.047
TELO2 (UniProt Q9Y4R8),inactive: -0.083,active: -0.359,inactive: -0.017,inactive: -0.093,–,inactive: 0.005,inactive: 0.123,–,inactive: 0.154,inactive: -0.052
TF (UniProt P02787),inactive: -0.04,inactive: 0.199,inactive: 0.003,inactive: -0.536,inactive: -0.074,inactive: -0.064,inactive: -0.009,inactive: -0.086,inactive: 0.159,inactive: 0.09
TFDP1 (UniProt Q14186),inactive: -0.003,inactive: -0.117,inactive: 0.011,inactive: 0.081,inactive: 0.137,inactive: -0.041,inactive: 0.069,inactive: 0.026,–,inactive: 0.01

# Shown with bars between the fields: entries from further up.
Target | log2 fold change [1] | log2 fold change [2] | log2 fold change [3] | log2 fold change [4] | log2 fold change [5] | log2 fold change [6] | log2 fold change [7] | log2 fold change [8] | log2 fold change [9] | log2 fold change [10]
THUMPD3 (UniProt Q9BV44) | inactive: -0.035 | inactive: -0.062 | inactive: 0.03 | inactive: 0.038 | inactive: 0 | inactive: -0.049 | inactive: 0.026 | inactive: -0.003 | inactive: -0.049 | inactive: -0.094
THOC2 (UniProt Q8NI27) | inactive: 0.021 | inactive: 0.015 | inactive: 0.025 | inactive: -0.033 | inactive: -0.039 | inactive: 0.06 | inactive: 0.009 | inactive: 0.005 | inactive: 0.089 | inactive: -0.012
TFIP11 (UniProt Q9UBB9) | inactive: 0.029 | – | – | – | – | – | – | – | – | –
TLE3 isoform 4 (UniProt Q04726) | inactive: 0.031 | inactive: -0.01 | inactive: -0.023 | inactive: 0.101 | inactive: -0.035 | inactive: -0.043 | inactive: -0.04 | inactive: -0.01 | inactive: 0.028 | inactive: 0.032
TIMM17B (UniProt O60830) | inactive: 0.01 | inactive: 0.046 | inactive: -0.029 | inactive: -0.029 | inactive: 0.042 | inactive: -0.02 | inactive: -0.129 | inactive: -0.045 | inactive: -0.064 | inactive: 0.009
TFB1M (UniProt Q8WVM0) | inactive: 0.15 | inactive: 0.144 | inactive: 0.032 | inactive: -0.139 | inactive: 0.02 | inactive: 0.07 | inactive: -0.033 | inactive: 0.049 | inactive: 0.096 | inactive: 0.277
TBK1 (UniProt Q9UHD2) | inactive: -0.093 | inactive: -0.232 | inactive: 0.055 | inactive: 0.019 | – | inactive: 0.023 | inactive: -0.033 | – | inactive: 0.172 | inactive: -0.152
TIMM22 (UniProt Q9Y584) | inactive: -0.024 | inactive: 0.079 | inactive: -0.04 | inactive: 0.12 | inactive: 0.033 | inactive: -0.056 | inactive: 0.19 | inactive: 0.046 | inactive: -0.101 | inactive: 0.2

# Later entries.

Target,log2 fold change [1],log2 fold change [2],log2 fold change [3],log2 fold change [4],log2 fold change [5],log2 fold change [6],log2 fold change [7],log2 fold change [8],log2 fold change [9],log2 fold change [10]
TGFBR3 (UniProt Q03167),inactive: 0.05,inactive: -0.075,inactive: -0.063,inactive: -0.015,inactive: 0.073,inactive: -0.007,inactive: 0.009,inactive: 0.01,inactive: 0.03,inactive: 0.015
TBC1D24 (UniProt Q9ULP9),inactive: 0.025,inactive: -0.028,inactive: 0.05,inactive: -0.011,–,inactive: -0.175,inactive: 0.018,–,inactive: -0.067,inactive: -0.236
THOC6 (UniProt Q86W42),inactive: -0.037,inactive: -0.022,inactive: 0.004,inactive: 0.044,inactive: -0.021,inactive: -0.01,inactive: -0.018,inactive: 0.019,inactive: -0.034,inactive: 0.042
TGFBI (UniProt Q15582),inactive: -0.089,inactive: -0.211,inactive: -0.044,inactive: -0.33,–,inactive: 0.068,inactive: -0.128,–,inactive: 0.171,inactive: -0.142
THBS1 (UniProt P07996),inactive: -0.108,inactive: -0.004,inactive: -0.135,inactive: -0.328,inactive: -0.038,inactive: 0.009,inactive: -0.06,inactive: 0.13,inactive: 0.268,inactive: 0.039
TGS1 (UniProt Q96RS0),inactive: 0.031,inactive: -0.261,inactive: 0.126,inactive: -0.059,inactive: -0.122,–,inactive: -0.081,inactive: -0.027,inactive: 0.046,–
TCAF1 (UniProt Q9Y4C2),inactive: 0.024,inactive: -0.082,inactive: 0.078,inactive: 0.057,inactive: -0.047,inactive: -0.091,inactive: -0.012,inactive: 0.076,inactive: 0.07,inactive: -0.147
TCF12 isoform 3 (UniProt Q99081),inactive: -0.023,inactive: -0.13,inactive: 0.092,inactive: 0.108,inactive: -0.166,inactive: 0.102,inactive: 0.028,inactive: -0.011,inactive: 0.053,inactive: -0.064
TBCD (UniProt Q9BTW9),inactive: -0.061,active: -0.315,inactive: 0.074,inactive: -0.012,–,inactive: -0.002,inactive: 0.033,–,inactive: -0.044,inactive: -0.094
TIMM13 (UniProt Q9Y5L4),inactive: 0.019,inactive: -0.048,inactive: 0.027,inactive: 0.213,–,inactive: 0,inactive: -0.032,–,inactive: -0.094,inactive: 0.237
TIPRL (UniProt O75663),inactive: -0.061,active: -0.23,inactive: 0.072,inactive: 0.025,–,inactive: -0.057,inactive: 0.032,–,inactive: 0.021,inactive: -0.214
TDRKH (UniProt Q9Y2W6),inactive: 0.03,inactive: -0.062,inactive: 0.103,inactive: -0.043,inactive: -0.039,inactive: 0.007,inactive: -0.005,inactive: 0.053,inactive: 0.005,inactive: -0.094
TBCA (UniProt O75347),inactive: -0.019,inactive: 0.123,inactive: -0.062,inactive: -0.022,inactive: 0.028,inactive: 0.009,inactive: -0.053,inactive: -0.001,inactive: -0.054,inactive: -0.017
TIMM17A (UniProt Q99595),inactive: 0.051,inactive: 0.088,inactive: -0.084,inactive: 0.009,inactive: -0.033,inactive: 0.05,inactive: -0.029,inactive: -0.045,inactive: -0.05,inactive: 0.009
TCOF1 isoform 4 (UniProt Q13428),inactive: -0.018,inactive: 0.034,inactive: -0.016,inactive: -0.02,–,inactive: 0.063,inactive: -0.052,–,inactive: 0.019,inactive: -0.06
TIMM8A (UniProt O60220),inactive: -0.077,inactive: -0.024,inactive: -0.03,inactive: 0.358,inactive: 0.061,inactive: 0.093,inactive: 0.023,inactive: -0.014,inactive: -0.05,inactive: 0.281
